Here are results for 1 molecule from PubChem BioAssay AID487 (Columbia University Molecular Screening Center, 2006).

The structures appear in SMILES notation. This is one part of the list.

A short description of the assay: endothelial E-selectin expression blockers – imaging, HUVEC, immunofluorescence, MLSMR starter and 10KST1 sets, primary screen (AID 487).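 Also: 100% = median nuclei count of all wells on the same plate.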 The note with it: HUVEC TNFalpha-induced E-selectin immunofluorescence imaging; measured here: cell number, toxicity; at 2 µM.
On to `Fc1ccccc1NC1CCN(Cc2ccccc2)CC1`, for which the nuclei count is 115%.
